Measured values: PubChem BioAssay AID493014 (National Center for Advancing Translational Sciences (NCATS), 2011)
Some of the results follow. Further columns of the screen follow, without active or inactive calls. Compounds called inactive in the main read-out are mostly missing here. Words in brackets tell the shape of the fitted curve; partial curves, single points and poor fits give uncertain potencies.

Experiment: qHTS Assay to Find Inhibitors of Chronic Active B-Cell Receptor Signaling
Settings: ABC-DLBCL IkBa-CBG/CBR reporter, luminescence ratio (green luciferase fused to IkBa over red control in TMD8 lymphoma cells), 4 h
In short: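 Concentration-response series (up to 46 uM) were applied to TMD8 dual-reporter cells for 4 h at 37C with doxycycline. Green/red ratio, after filter-overlap correction, defined %Activity; red signal alone was normalised to basal cells and zero luminescence.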

[1] = measured here: CBR red luminescence, cell number
[2] = measured here: IkBa-CBG green luminescence

Row | SMILES | AC50 [1] | AC50 [2]
1 | CN(C)c1ccc(CNC(=O)c2ccc(CNc3c(N4CCCCC4)c(=O)c3=O)cc2)cc1 | 8.2 µM [rising, partial curve] | –
2 | CC(C)c1nc2ccc(C(=O)O)cc2[nH]1 | 18.4 µM [falling, partial curve, poor fit] | –
3 | O=C(CSc1ccccn1)N/N=C/C=C/c1ccccc1 | 0.92 µM [rising, full curve, poor fit] | –
4 | NC(=O)NC(=O)C(c1ccccc1)N1CCN(S(=O)(=O)c2ccc(Br)s2)CC1 (stereo not drawn) | 16.4 µM [falling, partial curve] | –
5 | CCOC(=O)/C=c1\s/c(=C\c2ccccc2C)c(=O)n1CC(=O)NCc1ccc2c(c1)OCO2 | 29.1 µM [rising, single point] | 23.1 µM [falling, single point]
6 | Cc1cccc(OCc2nnc(SCCC(=O)O)n2-c2ccccc2)c1 | 0.1 µM [rising, full curve, poor fit] | –
7 | COc1cc2c(cc1OC)C(c1cc(Br)ccc1F)N(C(=O)CCl)CC2 (stereo not drawn) | 11.2 µM [rising, partial curve, poor fit] | 22.4 µM [falling, single point]
8 | O=C(NCc1ccco1)C1c2ccccc2Oc2ccccc21 | 20 µM [falling, single point] | –
9 | COc1ccc2c(c1)C(=O)C(=O)N2CCS(=O)(=O)c1ccccc1 | 35.5 µM [falling, single point] | –
10 | CCOC(=O)c1[nH]c(C)c(C(=O)/C=C/c2ccc(C(=O)O)cc2)c1C | 35.5 µM [falling, single point] | –
11 | CCCCc1nc(Cl)c(C#N)c2c1CSC(C)(C)C2 | 7.31 µM [rising, partial curve, poor fit] | –
12 | CC(C)(O)CC[C@@H](O)[C@](C)(O)C1CC[C@@]2(O)C3=CC(=O)[C@]4(O)C[C@@H](O)[C@@H](O)C[C@]4(C)C3CC[C@]12C (stereo partly drawn) | 0.259 µM [rising, full curve, poor fit] | –
13 | Cc1ccc(NC(=O)C2CC(=O)N(c3ccc4c(c3)OCCO4)C2)cc1S(=O)(=O)N1CCCCCC1 (stereo not drawn) | 29.1 µM [falling, single point] | –
14 | CCCCn1cnc2c(c(-c3ccccc3)c(-c3ccccc3)n2Cc2ccco2)c1=N | 35.5 µM [falling, single point] | –
15 | N#Cc1c(N2CCN(C(=O)c3ccccc3)CC2)nc(-c2ccccc2)c2c1CCCC2 | 29.1 µM [falling, single point] | –
16 | CC1CCc2c(sc(NC(=O)CSc3nc(N)cc(=O)[nH]3)c2C(N)=O)C1 (stereo not drawn) | 13 µM [rising, partial curve] | 20.6 µM [falling, partial curve]
17 | N#CCO/N=C/C(=O)Nc1ccc(F)cc1F | 6.31 µM [falling, partial curve, poor fit] | –
18 | COc1ccc(Nc2nc(N)nc(CCl)n2)cc1 | 15.8 µM [rising, single point] | 35.5 µM [falling, partial curve, poor fit]
19 | COc1ccccc1NC(=O)Cn1ncc2c1-c1ccccc1OC2 | 18.4 µM [falling, single point] | –
20 | COc1ccc(-c2nn(-c3ccccc3)cc2C(=O)Nc2nccs2)cc1OC | 1.46 µM [falling, full curve] | 0.517 µM [rising, full curve, poor fit]

Row | SMILES | AC50 [1] | AC50 [2]
21 | O=C1C=C(c2cccc3c2sc2ccccc23)C[C@@H](c2ccc(F)cc2)C1 | 29.1 µM [rising, single point] | –
22 | CCOC(=O)N/N=C/C=C/c1ccccc1 | 29.1 µM [falling, single point] | –
23 | CC1CCCCN1CCCNc1ccc(C(CC(N)=O)NC(=O)Cc2cccc3ccccc23)cc1[N+](=O)[O-] (stereo not drawn) | 3.16 µM [falling, single point] | –
24 | CC(=O)c1ccc(NC(=S)Nc2cccc3ccccc23)cc1 | 3.16 µM [falling, full curve, poor fit] | –
25 | O=C(N/N=C/c1cccc(OC(=O)c2ccco2)c1)c1ccc(F)cc1 | 14.6 µM [falling, partial curve, poor fit] | –
26 | O=C1N=C(N2CCOCC2)S/C1=C/c1cc2c(cc1[N+](=O)[O-])OCO2 | 7.94 µM [falling, partial curve] | –
27 | CNC(=O)CSc1nnc(-c2ccc(S(=O)(=O)N3CCCC3)cc2)n1-c1cccc(C)c1C | 0.651 µM [falling, partial curve, poor fit] | –
28 | C/C(=N/Nc1nc(-c2ccccc2)cc(-c2ccccc2)n1)c1ccc(N)cc1 | 6.51 µM [falling, partial curve] | –
29 | COc1cc(C(=O)N2CCN(c3cccc(C)c3C)CC2)cc(OC)c1OC | 16.4 µM [rising, partial curve] | 11.6 µM [falling, partial curve]
30 | COc1ccc(NS(=O)(=O)c2cc(NC(=O)c3ccc(C)s3)ccc2N2CCOCC2)cc1 | 20 µM [rising, partial curve, poor fit] | –
31 | COc1ccc(C(=O)N/N=C(\C)CC(=O)Nc2ccccn2)cc1OC | 1 µM [falling, full curve, poor fit] | –
32 | O=C1NC(c2ccccc2)C(C(=O)c2cccs2)=C1O (stereo not drawn) | 20.6 µM [falling, partial curve, poor fit] | –
33 | COCCNC(=O)c1cn(Cc2c(F)cccc2Cl)nn1 | 10 µM [rising, partial curve, poor fit] | –
34 | COc1ccc(S(=O)(=O)Nc2c(C)cccc2C)cc1-n1cnnn1 | 35.5 µM [falling, single point] | –
35 | COc1ccc(NC(=O)c2cccs2)cc1 | 32.6 µM [falling, single point] | –
36 | O=C(NCCNS(=O)(=O)c1ccccc1)c1cc(OCC(F)(F)F)ccc1OCC(F)(F)F | 14.1 µM [rising, single point] | –
37 | COc1ccc(C)c2sc(=NC(=O)c3ccccc3)n(C)c12 | 16.4 µM [falling, partial curve] | –
38 | CCc1nonc1NC(=O)c1oc2cc(C)c(C)cc2c1C | 3.98 µM [rising, full curve, poor fit] | –
39 | COc1ccccc1C(=O)NNC(=O)c1ccccc1F | 18.4 µM [falling, partial curve] | –
40 | CCOC(=O)C(Cc1ccccc1)NC(=O)Cn1nnc(-c2ccc(SC)cc2)n1 (stereo not drawn) | 0.1 µM [falling, full curve, poor fit] | –

Another view of some results above:
Row,SMILES,AC50 [1],AC50 [2]
23,CC1CCCCN1CCCNc1ccc(C(CC(N)=O)NC(=O)Cc2cccc3ccccc23)cc1[N+](=O)[O-] (stereo not drawn),"3.16 µM [falling, single point]",–
36,O=C(NCCNS(=O)(=O)c1ccccc1)c1cc(OCC(F)(F)F)ccc1OCC(F)(F)F,"14.1 µM [rising, single point]",–

Next part:

Row | SMILES | AC50 [1] | AC50 [2]
41 | C/C(=N\NC(=O)c1ccc2ccccc2c1)c1cccs1 | 22.4 µM [falling, single point] | –
42 | C/C(CC(=O)Nc1cc(C)ccn1)=N\NC(=O)c1ccccc1C | 2.82 µM [falling, full curve] | –
43 | CC(=O)c1c(C)nn(C(=O)c2cccs2)c1C | 29.1 µM [rising, single point] | –
44 | CCOC(=O)C1CCN(c2ccc(Cl)nn2)CC1 | 6.31 µM [rising, single point] | –
45 | CC(=O)c1ccc(NC(=O)c2ccc3nc(-c4ccco4)c(-c4ccco4)nc3c2)cc1 | 20.6 µM [falling, partial curve, poor fit] | –
46 | O=C(CCc1ccccc1)NNC(=O)Nc1ccc(Br)cc1 | 0.282 µM [rising, full curve, poor fit] | –
47 | O=C(CSc1ncccc1-c1nc2ccccc2[nH]1)Nc1ccc2c(c1)OCCO2 | 13 µM [falling, partial curve, poor fit] | –
48 | COC(=O)c1cc2ccsc2n1Cc1ccccc1F | 18.4 µM [rising, partial curve] | –
49 | CCn1c(CCNC(=O)c2ccc(OC)c(OC)c2)nc2ccccc21 | 1.64 µM [falling, full curve, poor fit] | 18.4 µM [rising, partial curve, poor fit]
50 | Cc1cc(OCC(=O)Nc2ccccc2N2CCOCC2)c(C(C)C)cc1Cl | 9.2 µM [falling, partial curve] | –
51 | COc1ccc(NC(=O)NCCc2ccc(Cl)cc2)cc1OC | 35.5 µM [rising, single point] | –
52 | N/C(=N\OC(=O)CCC1CCCC1)c1ccncc1 | 12.6 µM [rising, partial curve, poor fit] | –
53 | Cc1cccc(C(=O)N[C@H](C(=O)Nc2ncc(C)s2)C(C)C)c1 | 6.31 µM [rising, single point] | –
54 | COc1ccc(-c2csc(Nc3ccc(S(N)(=O)=O)cc3)n2)cc1OC | 10 µM [falling, partial curve, poor fit] | –
55 | O=C(c1ccc(-c2ccccc2)cc1)C1CCCN(Cc2ccncc2)C1 (stereo not drawn) | 4.47 µM [falling, partial curve] | 0.631 µM [rising, full curve, poor fit]
56 | O=c1[nH]nc(Cc2ccc3ccccc3n2)c2ccccc12 | 7.94 µM [rising, partial curve] | –
57 | CCOC(=O)C1CCN(C(=O)CCc2c(C)nc3cc(-c4ccc(OC)cc4OC)nn3c2C)CC1 | 8.91 µM [falling, partial curve] | –
58 | COc1ccccc1N1CCN(C(=O)c2ccc3c(Cl)c4c(nc3c2)CCCC4)CC1 | 20.6 µM [falling, partial curve] | –
59 | N#Cc1c(NC(=O)COC(=O)C2CC3C=CC2C3)oc(-c2ccccc2)c1-c1ccccc1 (stereo not drawn) | 9.2 µM [falling, partial curve] | –
60 | CCn1c(SCC(=O)Nc2sc(C)c(C)c2C#N)nnc1C1CC1 | 35.5 µM [falling, single point] | –
